# Values from PubChem BioAssay AID1259308 (NCATS, 2017).
# Test: 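Candidate targets for better recombinant protein yield in mammalian cells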 (primary screen)
# Cells: human HEK293 embryonic kidney cells stably expressing firefly luciferase (HEK-CMV-Luc2-Hygro)
# Reagents: single siRNA against human genes, 0.8 pmol siRNA per well
# Timing: 72 h
# Read-out: 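Luciferase light (ONE-Glo) measured on one replicate plate set and viability (CellTiter-Glo) on the other, scaled to a negative control siRNA, with robust z-scores and luciferase per cell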
# Reading the numbers: total luciferase, z-score and total luciferase, % of control: higher = more reporter protein produced; luciferase per cell, z-score: higher = more reporter output per viable cell; viable cells, % of control: higher = more viable cells
# Call rule: 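An siRNA counts as active if its total luciferase robust z-score exceeds 3; genes with two or more such siRNAs out of three were retested with fresh siRNAs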
# Calls: active = raised luciferase; inactive = no rise
# The deposit covers about 59,000 reagents; below is an unselected part. Over the whole deposit, about 1,510 (2.6%) got an active call. 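Calls use total luciferase alone and ignore viability, so some active siRNAs may act by altering cell number.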 Unmarked entries are inactive. Reagents against one gene are numbered here. No sequences are given here.
"total luciferase, z-score","total luciferase, % of control","luciferase per cell, z-score","viable cells, % of control",gene,reagent
2.33,128,1.38,99.6,CPA4 (carboxypeptidase A4),1
-0.977,62.5,-1.28,97.7,CPA4 (carboxypeptidase A4),2
0.935,100,0.123,109,CPA4 (carboxypeptidase A4),3
0.944,101,1.77,70.7,UBTFL3 (UBTF like 3 (pseudogene)),1
-0.859,64.8,-1.05,95.4,UBTFL3 (UBTF like 3 (pseudogene)),2
-0.359,74.7,0.63,70.7,UBTFL3 (UBTF like 3 (pseudogene)),3
-1.26,56.9,-0.535,73.2,CFAP300 (cilia and flagella associated protein 300),1
-0.427,73.4,-0.663,97.7,CFAP300 (cilia and flagella associated protein 300),2
1.09,104,2.17,65.4,CFAP300 (cilia and flagella associated protein 300),3
0.608,94,0.343,95.9,PSMB8 (proteasome 20S subunit beta 8),1
-1.96,42.8,-3.14,109,PSMB8 (proteasome 20S subunit beta 8),2
-0.235,77.2,-0.725,104,PSMB8 (proteasome 20S subunit beta 8),3
0.346,88.8,-0.048,100,BTBD18 (BTB domain containing 18),1
2.95,141,2.4,83.5,BTBD18 (BTB domain containing 18),2
-1.21,57.9,-0.0934,66.3,BTBD18 (BTB domain containing 18),3
-0.374,74.4,0.745,68.4,RBM20 (RNA binding motif protein 20),1
-0.354,74.8,-0.162,87.3,RBM20 (RNA binding motif protein 20),2
-0.403,73.9,-0.94,106,RBM20 (RNA binding motif protein 20),3
-1.11,59.7,-0.617,78.5,NLGN1 (neuroligin 1),1
1.41,110,0.974,95.1,NLGN1 (neuroligin 1),2
1.2,106,0.774,96.3,NLGN1 (neuroligin 1),3
1.06,103,1.3,81.7,PNLDC1 (PARN like ribonuclease domain containing exonuclease 1),1
-0.00467,81.8,-0.105,94,PNLDC1 (PARN like ribonuclease domain containing exonuclease 1),2
-1.04,61.1,-0.639,80.8,PNLDC1 (PARN like ribonuclease domain containing exonuclease 1),3
